Test system: gene expression of IL-6, TNFα and CCL2 in the brains of S1 mice
Conditions: mouse, in vivo

COc1cc2c(cc1OC)C(=O)C(CC1CCN(Cc3ccccc3)CC1)C2.Cl (stereo not drawn) [donepezil, 2-[(1-benzyl-4-piperidyl)methyl]-5,6-dimethoxyindan-1-one hydrochloride]
tended to decrease: expression of CCL2 in the brains of the S1 mice | expression of IL-6 in the brains of the S1 mice | expression of TNFα in the brains of the S1 mice

From US20250090516A1, “DRUG FOR TREATING AF[…] NOVEL CORONAVIRUS INFECTION” (THE JIKEI UNIVERSITY, priority 2022, published 2025)
